# In PMC4672292:
# The chains behind the UniProt entries cited, without tags or fusion partners.
# UniProt P06136: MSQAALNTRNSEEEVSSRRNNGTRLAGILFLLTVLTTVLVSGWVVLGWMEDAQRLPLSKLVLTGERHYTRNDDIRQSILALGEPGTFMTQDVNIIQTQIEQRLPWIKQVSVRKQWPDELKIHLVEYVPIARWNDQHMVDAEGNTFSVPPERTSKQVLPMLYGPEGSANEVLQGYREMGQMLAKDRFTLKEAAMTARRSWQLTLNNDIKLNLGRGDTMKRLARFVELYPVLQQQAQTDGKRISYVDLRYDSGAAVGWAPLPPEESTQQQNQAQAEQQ
# No constants are given. Whether binding was seen depends on the method and setting. Some results given as binding are weak or reduced against the parent protein; the word gives no strength.
# B1: FtsK (protein, UniProt P46889 1-1329)
# chain: MSQEYIEDKEVTLTKLSSGRRLLEALLILIVLFAVWLMAALLSFNPSDPSWSQTAWHEPIHNLGGMPGAWLADTLFFIFGVMAYTIPVIIVGGCWFAWRHQSSDEYIDYFAVSLRIIGVLALILTSCGLAAINADDIWYFASGGVIGSLLSTTLQPLLHSSGGTIALLCVWAAGLTLFTGWSWVTIAEKLGGWILNILTFASNRTRRDDTWVDEDEYEDDEEYEDENHGKQHESRRARILRGALARRKRLAEKFINPMGRQTDAALFSGKRMDDDEEITYTARGVAADPDDVLFSGNRATQPEYDEYDPLLNGAPITEPVAVAAAATTATQSWAAPVEPVTQTPPVASVDVPPAQPTVAWQPVPGPQTGEPVIAPAPEGYPQQSQYAQPAVQYNEPLQQPVQPQQPYYAPAAEQPAQQPYYAPAPEQPVAGNAWQAEEQQSTFAPQSTYQTEQTYQQPAAQEPLYQQPQPVEQQPVVEPEPVVEETKPARPPLYYFEEVEEKRAREREQLAAWYQPIPEPVKEPEPIKSSLKAPSVAAVPPVEAAAAVSPLASGVKKATLATGAAATVAAPVFSLANSGGPRPQVKEGIGPQLPRPKRIRVPTRRELASYGIKLPSQRAAEEKAREAQRNQYDSGDQYNDDEIDAMQQDELARQFAQTQQQRYGEQYQHDVPVNAEDADAAAEAELARQFAQTQQQRYSGEQPAGANPFSLDDFEFSPMKALLDDGPHEPLFTPIVEPVQQPQQPVAPQQQYQQPQQPVPPQPQYQQPQQPVAPQPQYQQPQQPVAPQQQYQQPQQPVAPQQQYQQPQQPVAPQPQDTLLHPLLMRNGDSRPLHKPTTPLPSLDLLTPPPSEVEPVDTFALEQMARLVEARLADFRIKADVVNYSPGPVITRFELNLAPGVKAARISNLSRDLARSLSTVAVRVVEVIPGKPYVGLELPNKKRQTVYLREVLDNAKFRDNPSPLTVVLGKDIAGEPVVADLAKMPHLLVAGTTGSGKSVGVNAMILSMLYKAQPEDVRFIMIDPKMLELSVYEGIPHLLTEVVTDMKDAANALRWCVNEMERRYKLMSALGVRNLAGYNEKIAEADRMMRPIPDPYWKPGDSMDAQHPVLKKEPYIVVLVDEFADLMMTVGKKVEELIARLAQKARAAGIHLVLATQRPSVDVITGLIKANIPTRIAFTVSSKIDSRTILDQAGAESLLGMGDMLYSGPNSTLPVRVHGAFVRDQEVHAVVQDWKARGRPQYVDGITSDSESEGGAGGFDGAEELDPLFDQAVQFVTEKRKASISGVQRQFRIGYNRAARIIEQMEAQGIVSEQGHNGNREVLAPPPFD
# B2: FtsN (protein, UniProt P29131 1-319)
# chain: MAQRDYVRRSQPAPSRRKKSTSRKKQRNLPAVSPAMVAIAAAVLVTFIGGLYFITHHKKEESETLQSQKVTGNGLPPKPEERWRYIKELESRQPGVRAPTEPSAGGEVKTPEQLTPEQRQLLEQMQADMRQQPTQLVEVPWNEQTPEQRQQTLQRQRQAQQLAEQQRLAQQSRTTEQSWQQQTRTSQAAPVQAQPRQSKPASSQQPYQDLLQTPAHTTAQSKPQQAAPVARAADAPKPTAEKKDERRWMVQCGSFRGAEQAETVRAQLAFEGFDSKITTNNGWNRVVIGPVKGKENADSTLNRLKMAGHTNCIRLAAGG
# Key:
# [1] = target: FtsQ (E. coli (endogenous in MC4100)) (UniProt P06136); assay: condition: only cells in early stationary growth phase; native gel or EMSA; as a1 but cells sampled in early stationary growth phase (OD600 3.5-4.0)
# [2] = target: FtsQ (E. coli (endogenous in MC4100)) (UniProt P06136); assay: native gel or EMSA; as a3 but gel fragment cut at the same height from the lane of stationary phase cells
# [3] = target: FtsQ (E. coli (endogenous in MC4100)) (UniProt P06136); assay: native gel or EMSA; 1 MDa band (found by anti-FtsQ) excised from the Coomassie-stained CN-PAGE gel of mid-exponential cells, run on SDS-PAGE, Western-blotted and probed with antibodies against division proteins
# [4] = target: FtsQ (E. coli (endogenous in MC4100)) (UniProt P06136); assay: native gel or EMSA; clear native PAGE (CN-PAGE, 4 °C) of mid-exponential E. coli MC4100 whole cells treated with lysozyme and solubilised with 1% DDM (750 mM aminocaproic acid, 50 mM Bis Tris pH 7.0); native gel Western-blotted and probed with antibodies; co-migration at about 1 MDa; also cells with an extra plasmid copy of ftsQ or ftsQ-D237N, without or with 0.2% arabinose
binder,measurement,setting,value
B1,binding,[1],no binding
same,binding,[2],no binding (condition: cells in stationary growth phase)
same,binding,[3],binds
same,binding,[4],binds
B2,binding,[2],no binding (condition: cells in stationary growth phase)
same,binding,[3],binds
same,binding,[4],binds
